Taken from: PubChem BioAssay AID504774 (Drosophila RNAi Screening Center, 2011)

- Screen: 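Fly genes whose loss alters survival after alkylation damage to DNA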 (primary screen)
- Cells: Drosophila Kc167 cells
- Reagent: long dsRNA against Drosophila genes, about 0.25 µg dsRNA per well
- Duration: about 6 days: 3 days knock-down, then 3 days with or without MMS
- Conditions: methyl methanesulphonate 0.004% (w/v) for 3 days after knock-down
- Detection: 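ATP-dependent luminescence as a measure of live cells in MMS-exposed wells, quantile normalised within each plate, with replicate values also given as a mean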
- Reading the numbers: mean viability with MMS: higher = more surviving cells after MMS
In all, the deposit lists about 23,000 reagents; shown is a random part of those with a known target gene and a result. 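Values are quantile-normalised luminescence on an arbitrary scale; higher means more cells surviving MMS.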 Further read-outs or replicates are left out here.

Listericin [DRSC07334] showed mean viability with MMS 3.57e6.
Silencing of CG30383 [DRSC05062] resulted in: mean viability with MMS 3.52e6.
CG7786 [DRSC07045] scored mean viability with MMS 3.82e6.
Topors [DRSC06531] showed mean viability with MMS 3.63e6.
After knock-down of CG10252 [DRSC14221], the screen gave mean viability with MMS 3.37e6.
For conv [DRSC07213], the entry reads mean viability with MMS 3.59e6.
CG13557 [DRSC04195] scored mean viability with MMS 3.62e6.
For nAChRalpha1 [DRSC13664], the values are mean viability with MMS 3.40e6.
Knock-down of nAChRalpha1 [DRSC13670] resulted in: mean viability with MMS 2.87e6.
Depletion of nAChRalpha1 [DRSC13672] resulted in: mean viability with MMS 3.52e6.
For nAChRalpha1 [DRSC17008], the entry reads mean viability with MMS 3.43e6.
Against CG4935 [DRSC01924] the deposit lists mean viability with MMS 3.62e6.
Knock-down of CG13958 (retired record) [DRSC02300] resulted in: mean viability with MMS 3.46e6.
CG6472 [DRSC06989] showed mean viability with MMS 3.60e6.
Depletion of CG10713 [DRSC09786] resulted in: mean viability with MMS 3.56e6.
NimA [DRSC01353] showed mean viability with MMS 3.60e6.
Against NimA [DRSC22170], the entry reads mean viability with MMS 3.53e6.
Against mAChR-B [DRSC16345] the deposit lists mean viability with MMS 3.43e6.
For CG10286 [DRSC12520], the entry reads mean viability with MMS 3.42e6.
Depletion of CG31051 [DRSC15034] came out at: mean viability with MMS 3.49e6.
dpr9 [DRSC14534] showed mean viability with MMS 3.77e6.
For dpr9 [DRSC14985] the deposit lists mean viability with MMS 3.60e6.
dpr9 [DRSC14986] showed mean viability with MMS 3.63e6.
With knock-down of Tspo [DRSC00533], the record shows mean viability with MMS 3.61e6.
After knock-down of CG13992 [DRSC02324] the results were mean viability with MMS 3.57e6.
For Mys45A [DRSC07067] the deposit lists mean viability with MMS 3.07e6.
After knock-down of wdp [DRSC04367] the results were mean viability with MMS 3.58e6.
Depletion of CG7236 [DRSC03037] came out at: mean viability with MMS 3.50e6.
Silencing of CG6576 [DRSC10663] gave: mean viability with MMS 3.62e6.
Silencing of sob [DRSC00838] resulted in: mean viability with MMS 3.31e6.

A portion of the results above, for reference:
CG6472 [DRSC06989]: mean viability with MMS = 3.60e6
CG10713 [DRSC09786]: mean viability with MMS = 3.56e6

The results go on.
Against CG14332 [DRSC14811] the deposit lists mean viability with MMS 3.61e6.
Silencing of CR33318 [DRSC22949] resulted in: mean viability with MMS 3.64e6.
CG42795 [DRSC12772] gave mean viability with MMS 3.56e6.
CG42795 [DRSC15533] scored mean viability with MMS 3.49e6.
eIF4H2 [DRSC14582] showed mean viability with MMS 3.47e6.
After knock-down of SkpA [DRSC18833], the record shows mean viability with MMS 3.17e6.
For z [DRSC18855], the values are mean viability with MMS 3.03e6.
z [DRSC23134] showed mean viability with MMS 3.41e6.
yellow-e [DRSC12966] gave mean viability with MMS 3.78e6.
After knock-down of yellow-e [DRSC16563], the screen gave mean viability with MMS 3.62e6.
Depletion of GMF [DRSC01928] gave: mean viability with MMS 3.60e6.
Knock-down of CG11456 [DRSC11665] came out at: mean viability with MMS 3.60e6.
CG7130 [DRSC11797] scored mean viability with MMS 3.44e6.
Silencing of CG12479 [DRSC19459] gave: mean viability with MMS 3.63e6.
After knock-down of CG18273 [DRSC18150], the record shows mean viability with MMS 3.46e6.
After knock-down of CG18273 [DRSC18505], the screen gave mean viability with MMS 3.69e6.
